The other results are listed elsewhere or left out.

The chains behind the UniProt entries cited, without tags or fusion partners. Where a name states a change or a piece, a line headed by the entry shows the natural chain unless it says otherwise.
UniProt Q8TBC4: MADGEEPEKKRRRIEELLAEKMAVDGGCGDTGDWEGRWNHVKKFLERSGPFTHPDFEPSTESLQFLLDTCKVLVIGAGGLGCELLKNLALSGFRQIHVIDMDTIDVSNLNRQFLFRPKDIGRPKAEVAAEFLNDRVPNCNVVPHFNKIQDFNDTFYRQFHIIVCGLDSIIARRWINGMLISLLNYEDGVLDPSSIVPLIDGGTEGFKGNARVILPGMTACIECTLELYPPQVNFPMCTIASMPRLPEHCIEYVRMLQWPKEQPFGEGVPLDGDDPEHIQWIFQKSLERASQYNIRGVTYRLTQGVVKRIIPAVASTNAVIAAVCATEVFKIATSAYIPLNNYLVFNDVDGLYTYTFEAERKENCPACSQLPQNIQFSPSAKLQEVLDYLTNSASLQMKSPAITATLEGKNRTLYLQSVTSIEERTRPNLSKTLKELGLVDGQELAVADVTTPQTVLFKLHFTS
UniProt P83876: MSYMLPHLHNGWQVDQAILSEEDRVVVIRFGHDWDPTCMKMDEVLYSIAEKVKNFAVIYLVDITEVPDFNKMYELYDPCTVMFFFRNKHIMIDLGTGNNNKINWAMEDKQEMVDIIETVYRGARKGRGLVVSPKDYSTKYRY
UniProt P68036, whole entry, looked up: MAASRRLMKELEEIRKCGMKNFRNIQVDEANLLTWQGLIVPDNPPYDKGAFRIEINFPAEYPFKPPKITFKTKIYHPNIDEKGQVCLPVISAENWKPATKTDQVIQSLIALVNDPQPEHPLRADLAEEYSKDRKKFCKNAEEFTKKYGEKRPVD
UniProt Q9BSL1: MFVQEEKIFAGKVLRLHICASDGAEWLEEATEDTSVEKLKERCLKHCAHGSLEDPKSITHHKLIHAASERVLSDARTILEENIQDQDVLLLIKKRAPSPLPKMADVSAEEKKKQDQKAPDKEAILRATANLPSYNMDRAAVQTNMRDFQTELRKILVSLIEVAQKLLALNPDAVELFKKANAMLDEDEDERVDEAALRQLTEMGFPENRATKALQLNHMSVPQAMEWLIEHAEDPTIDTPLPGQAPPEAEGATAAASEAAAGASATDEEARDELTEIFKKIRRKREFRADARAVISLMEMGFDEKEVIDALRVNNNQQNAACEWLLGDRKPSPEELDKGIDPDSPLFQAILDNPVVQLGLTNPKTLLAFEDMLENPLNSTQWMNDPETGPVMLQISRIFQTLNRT
UniProt Q9UNY4: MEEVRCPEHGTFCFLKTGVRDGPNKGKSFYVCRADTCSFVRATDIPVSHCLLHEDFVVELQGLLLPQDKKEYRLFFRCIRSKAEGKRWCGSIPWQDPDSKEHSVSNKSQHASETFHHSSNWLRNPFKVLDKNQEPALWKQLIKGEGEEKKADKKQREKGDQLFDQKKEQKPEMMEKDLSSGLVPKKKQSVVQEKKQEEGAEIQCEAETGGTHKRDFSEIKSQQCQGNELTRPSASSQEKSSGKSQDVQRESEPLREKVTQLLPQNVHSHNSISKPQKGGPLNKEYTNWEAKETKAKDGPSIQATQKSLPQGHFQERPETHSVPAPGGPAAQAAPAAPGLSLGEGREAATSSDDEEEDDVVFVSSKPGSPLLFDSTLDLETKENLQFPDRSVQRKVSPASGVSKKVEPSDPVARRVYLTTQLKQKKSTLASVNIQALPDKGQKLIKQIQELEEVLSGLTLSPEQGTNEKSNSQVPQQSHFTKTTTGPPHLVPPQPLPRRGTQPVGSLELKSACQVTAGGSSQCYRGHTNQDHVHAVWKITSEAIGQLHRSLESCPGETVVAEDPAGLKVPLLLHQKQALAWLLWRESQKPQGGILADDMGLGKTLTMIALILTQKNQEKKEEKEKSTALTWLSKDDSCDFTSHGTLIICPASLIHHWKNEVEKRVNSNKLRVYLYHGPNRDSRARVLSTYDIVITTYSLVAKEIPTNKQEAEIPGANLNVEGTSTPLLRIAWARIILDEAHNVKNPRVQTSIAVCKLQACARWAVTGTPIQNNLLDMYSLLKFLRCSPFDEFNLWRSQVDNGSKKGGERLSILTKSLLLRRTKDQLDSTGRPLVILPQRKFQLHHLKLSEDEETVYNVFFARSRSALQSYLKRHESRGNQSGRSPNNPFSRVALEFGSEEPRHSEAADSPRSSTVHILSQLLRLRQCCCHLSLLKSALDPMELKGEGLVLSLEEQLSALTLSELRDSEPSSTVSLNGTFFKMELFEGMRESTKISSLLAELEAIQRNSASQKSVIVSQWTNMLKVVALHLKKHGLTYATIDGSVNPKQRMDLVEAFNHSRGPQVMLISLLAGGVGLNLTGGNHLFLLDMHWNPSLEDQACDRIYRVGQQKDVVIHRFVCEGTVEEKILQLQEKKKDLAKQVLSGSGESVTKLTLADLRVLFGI
UniProt O95801: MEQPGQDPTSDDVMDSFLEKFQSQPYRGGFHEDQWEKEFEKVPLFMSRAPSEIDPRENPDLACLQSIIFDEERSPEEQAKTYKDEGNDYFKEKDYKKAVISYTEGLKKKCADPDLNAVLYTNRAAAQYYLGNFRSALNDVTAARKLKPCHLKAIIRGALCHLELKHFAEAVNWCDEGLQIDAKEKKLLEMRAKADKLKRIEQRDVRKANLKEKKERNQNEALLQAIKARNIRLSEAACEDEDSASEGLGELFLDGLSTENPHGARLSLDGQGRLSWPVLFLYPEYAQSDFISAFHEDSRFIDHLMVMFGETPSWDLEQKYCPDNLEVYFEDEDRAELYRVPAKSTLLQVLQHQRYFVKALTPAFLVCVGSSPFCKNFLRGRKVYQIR
UniProt P43897: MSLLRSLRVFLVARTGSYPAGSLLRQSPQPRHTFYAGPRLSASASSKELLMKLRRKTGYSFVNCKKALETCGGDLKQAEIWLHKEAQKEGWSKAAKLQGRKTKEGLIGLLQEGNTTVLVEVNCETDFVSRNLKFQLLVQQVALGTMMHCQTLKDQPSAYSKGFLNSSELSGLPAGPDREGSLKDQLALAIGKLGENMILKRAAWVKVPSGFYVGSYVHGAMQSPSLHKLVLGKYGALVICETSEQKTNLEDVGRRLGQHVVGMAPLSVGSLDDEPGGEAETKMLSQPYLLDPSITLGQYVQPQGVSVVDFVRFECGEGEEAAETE
UniProt Q969E8: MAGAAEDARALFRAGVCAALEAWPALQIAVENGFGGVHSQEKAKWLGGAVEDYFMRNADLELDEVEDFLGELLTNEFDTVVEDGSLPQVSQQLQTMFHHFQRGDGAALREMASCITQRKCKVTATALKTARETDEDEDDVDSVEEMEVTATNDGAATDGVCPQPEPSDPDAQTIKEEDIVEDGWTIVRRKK
UniProt Q9UJT0: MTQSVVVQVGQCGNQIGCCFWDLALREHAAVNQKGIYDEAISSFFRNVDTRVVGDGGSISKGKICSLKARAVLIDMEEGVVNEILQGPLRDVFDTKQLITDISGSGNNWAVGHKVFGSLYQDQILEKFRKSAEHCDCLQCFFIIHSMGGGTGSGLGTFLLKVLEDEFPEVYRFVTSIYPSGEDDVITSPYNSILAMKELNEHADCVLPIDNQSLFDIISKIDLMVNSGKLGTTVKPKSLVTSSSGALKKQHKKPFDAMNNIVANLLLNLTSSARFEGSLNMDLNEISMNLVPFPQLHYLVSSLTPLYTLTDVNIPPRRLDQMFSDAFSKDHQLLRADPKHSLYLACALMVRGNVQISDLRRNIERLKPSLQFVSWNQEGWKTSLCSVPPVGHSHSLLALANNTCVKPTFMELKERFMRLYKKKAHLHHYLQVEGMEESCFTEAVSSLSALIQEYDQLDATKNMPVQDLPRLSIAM
UniProt Q16763: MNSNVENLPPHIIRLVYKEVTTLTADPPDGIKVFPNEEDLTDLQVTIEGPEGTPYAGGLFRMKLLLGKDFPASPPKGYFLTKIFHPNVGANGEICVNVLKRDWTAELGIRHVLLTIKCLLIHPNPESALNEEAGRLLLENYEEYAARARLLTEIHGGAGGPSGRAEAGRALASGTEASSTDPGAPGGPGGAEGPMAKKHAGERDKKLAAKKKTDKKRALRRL
UniProt Q969T4: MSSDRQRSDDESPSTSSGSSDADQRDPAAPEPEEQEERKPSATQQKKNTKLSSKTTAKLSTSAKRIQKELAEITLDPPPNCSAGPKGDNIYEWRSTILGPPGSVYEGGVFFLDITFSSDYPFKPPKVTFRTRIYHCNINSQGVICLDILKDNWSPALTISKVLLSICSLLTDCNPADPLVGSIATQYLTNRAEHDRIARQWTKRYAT
UniProt Q96AE7: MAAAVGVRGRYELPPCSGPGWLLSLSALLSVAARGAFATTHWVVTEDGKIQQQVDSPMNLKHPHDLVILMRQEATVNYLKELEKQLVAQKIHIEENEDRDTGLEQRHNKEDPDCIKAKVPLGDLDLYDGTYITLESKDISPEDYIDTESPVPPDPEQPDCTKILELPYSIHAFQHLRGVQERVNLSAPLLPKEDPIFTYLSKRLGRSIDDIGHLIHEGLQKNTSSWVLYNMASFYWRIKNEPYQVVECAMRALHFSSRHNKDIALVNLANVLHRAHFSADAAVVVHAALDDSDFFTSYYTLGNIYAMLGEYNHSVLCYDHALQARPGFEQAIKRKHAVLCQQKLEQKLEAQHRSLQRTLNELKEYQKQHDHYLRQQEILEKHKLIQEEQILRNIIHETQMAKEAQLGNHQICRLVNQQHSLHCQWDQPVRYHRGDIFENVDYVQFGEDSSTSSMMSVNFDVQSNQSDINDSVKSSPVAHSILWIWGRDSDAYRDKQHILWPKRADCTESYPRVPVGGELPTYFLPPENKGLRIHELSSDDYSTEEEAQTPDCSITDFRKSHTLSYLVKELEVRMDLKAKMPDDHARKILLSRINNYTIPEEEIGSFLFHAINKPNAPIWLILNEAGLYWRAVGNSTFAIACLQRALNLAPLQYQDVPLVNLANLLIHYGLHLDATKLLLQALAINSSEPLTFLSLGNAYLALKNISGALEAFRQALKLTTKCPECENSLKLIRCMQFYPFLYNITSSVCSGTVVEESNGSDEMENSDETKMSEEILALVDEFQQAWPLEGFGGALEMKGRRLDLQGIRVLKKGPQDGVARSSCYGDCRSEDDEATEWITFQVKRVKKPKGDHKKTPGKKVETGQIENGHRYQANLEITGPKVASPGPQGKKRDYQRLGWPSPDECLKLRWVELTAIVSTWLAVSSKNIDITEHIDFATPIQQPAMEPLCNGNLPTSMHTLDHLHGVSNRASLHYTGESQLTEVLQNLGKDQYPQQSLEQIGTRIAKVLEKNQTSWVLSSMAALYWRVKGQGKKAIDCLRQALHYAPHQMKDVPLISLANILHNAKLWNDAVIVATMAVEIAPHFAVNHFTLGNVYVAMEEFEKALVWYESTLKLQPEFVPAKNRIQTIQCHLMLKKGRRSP
UniProt P30536, whole entry, looked up: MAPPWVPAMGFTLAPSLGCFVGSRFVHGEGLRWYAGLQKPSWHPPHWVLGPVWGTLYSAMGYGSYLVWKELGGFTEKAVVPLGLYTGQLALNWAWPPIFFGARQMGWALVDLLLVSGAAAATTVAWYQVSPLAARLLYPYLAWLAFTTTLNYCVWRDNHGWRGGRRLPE
UniProt Q8NG68: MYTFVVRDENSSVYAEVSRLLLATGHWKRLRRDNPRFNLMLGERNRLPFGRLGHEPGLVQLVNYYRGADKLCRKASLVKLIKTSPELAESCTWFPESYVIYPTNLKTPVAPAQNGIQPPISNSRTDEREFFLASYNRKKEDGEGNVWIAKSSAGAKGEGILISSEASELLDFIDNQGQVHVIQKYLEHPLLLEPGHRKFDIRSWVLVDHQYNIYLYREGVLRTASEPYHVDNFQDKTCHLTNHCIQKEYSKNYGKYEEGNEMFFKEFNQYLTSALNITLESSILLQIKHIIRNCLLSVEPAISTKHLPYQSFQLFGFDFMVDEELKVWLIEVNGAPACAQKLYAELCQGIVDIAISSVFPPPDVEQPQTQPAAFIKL
UniProt Q6IBS0: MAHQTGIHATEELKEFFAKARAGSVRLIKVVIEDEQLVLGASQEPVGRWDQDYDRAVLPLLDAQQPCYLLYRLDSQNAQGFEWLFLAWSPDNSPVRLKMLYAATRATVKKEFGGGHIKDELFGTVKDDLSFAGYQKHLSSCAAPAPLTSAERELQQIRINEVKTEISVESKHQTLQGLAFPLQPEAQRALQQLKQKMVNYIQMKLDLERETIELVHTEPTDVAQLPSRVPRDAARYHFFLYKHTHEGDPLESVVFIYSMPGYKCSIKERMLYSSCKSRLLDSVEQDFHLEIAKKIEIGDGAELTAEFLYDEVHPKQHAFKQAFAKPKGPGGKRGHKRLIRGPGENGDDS
UniProt Q969M7: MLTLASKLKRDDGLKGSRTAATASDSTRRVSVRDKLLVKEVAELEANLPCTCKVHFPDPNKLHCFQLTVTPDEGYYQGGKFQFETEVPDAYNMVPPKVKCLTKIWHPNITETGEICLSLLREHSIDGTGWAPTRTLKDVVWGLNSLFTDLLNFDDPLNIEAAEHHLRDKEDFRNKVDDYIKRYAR
UniProt Q01081: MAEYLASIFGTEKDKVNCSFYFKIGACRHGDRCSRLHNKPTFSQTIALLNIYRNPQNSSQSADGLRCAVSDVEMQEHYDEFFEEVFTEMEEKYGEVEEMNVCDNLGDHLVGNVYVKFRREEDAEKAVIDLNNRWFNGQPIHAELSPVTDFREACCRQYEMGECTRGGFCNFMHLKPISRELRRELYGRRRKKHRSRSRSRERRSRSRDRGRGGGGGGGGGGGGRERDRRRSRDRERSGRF

Compound in the first assay: NC1(c2ccc(-c3nc4ccn5c(=O)[nH]nc5c4cc3-c3ccccc3)cc2)CCC1
The assay can be described thus: log2 fold change, soluble protein after heating vs DMSO (PISA); higher = thermal stabilisation; K562 cells, 10 uM, 30 min; active = over 0.2 and 3.5 SD of the protein, either way, in both replicates (recomputed). The method, boiled down:
(§1)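 Quantification of soluble protein used TMTpro 16plex LC-MS/MS, with channel sums equalised. Samples were the supernatant after 21,000xg for 90 min of pooled aliquots from K562 cells (2×10^6 cells/mL) treated with 10 μM compound for 30 min, heated for 3 min over 48°C-58°C, and extracted in PBS with 0.5% NP-40 at 4°C. Values, from duplicates, describe thermal stability against control samples on a log2 fold-change scale.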
Regarding UBAP1 isoform 4 (UniProt Q9NZ09), the log2 fold change is inactive: -0.052.

Turning to U2AF2 (UniProt P26368), the log2 fold change was inactive: 0.033.

For the target TSPAN14 (UniProt Q8NG11), the log2 fold change was inactive: 0.028.

UBA3 (UniProt Q8TBC4): the log2 fold change is inactive: -0.171.

In the case of TXNL4A (UniProt P83876), the log2 fold change was inactive: -0.085.

Turning to TXNDC9 (UniProt O14530), the log2 fold change was inactive: -0.128.

Turning to UBE2L3 isoform 3 (UniProt P68036), the log2 fold change is inactive: 0.004.

In the case of UBAC1 (UniProt Q9BSL1), the log2 fold change is inactive: -0.105.

As for TTF2 (UniProt Q9UNY4), the log2 fold change is inactive: -0.097.

On to UBE3A (UniProt Q05086), for which the log2 fold change was inactive: -0.065.

As for TTC9C (UniProt Q8N5M4), the log2 fold change was inactive: -0.119.

In the case of TTC4 (UniProt O95801), the log2 fold change was inactive: -0.064.

For UBA1 (UniProt P22314), the log2 fold change was inactive: -0.275.

With TSFM (UniProt P43897), the log2 fold change is inactive: -0.05.

With TSR2 (UniProt Q969E8), the log2 fold change is inactive: -0.042.

For the target TUBE1 (UniProt Q9UJT0), the log2 fold change was inactive: 0.006.

Take UBE2S (UniProt Q16763): the log2 fold change is inactive: -0.033.

In the case of TXNRD2 (UniProt Q9NNW7), the log2 fold change is inactive: 0.002.

On to UBE2E3 (UniProt Q969T4), for which the log2 fold change was inactive: -0.155.

As to UBAP2 (UniProt Q5T6F2), the log2 fold change was inactive: 0.05.

Turning to UBE2M (UniProt P61081), the log2 fold change is inactive: -0.089.

Consider TTC17 (UniProt Q96AE7), for which the log2 fold change is inactive: 0.017.

On to TTI1 (UniProt O43156), for which the log2 fold change is inactive: -0.181.

In the case of UAP1 (UniProt Q16222), the log2 fold change is inactive: -0.035.

For TSPO (UniProt P30536), the log2 fold change is inactive: -0.102.

In the case of TTN isoform 12 (UniProt Q8WZ42), the log2 fold change was inactive: 0.08.

As to TTL (UniProt Q8NG68), the log2 fold change was inactive: -0.048.

With TXNDC15 (UniProt Q96J42), the log2 fold change is inactive: -0.179.

For the target UBE2T (UniProt Q9NPD8), the log2 fold change is inactive: -0.092.

With TWF2 (UniProt Q6IBS0), the log2 fold change is inactive: -0.13.

For TUFM (UniProt P49411), the log2 fold change was inactive: -0.106.

Turning to UBA52 (UniProt P62987), the log2 fold change was inactive: 0.366.

In the case of UBE2G1 (UniProt P62253), the log2 fold change is inactive: -0.062.

With UBE2F isoform 2 (UniProt Q969M7), the log2 fold change is inactive: -0.006.

On to U2SURP (UniProt O15042), for which the log2 fold change is inactive: -0.029.

Take TXNIP (UniProt Q9H3M7): the log2 fold change is inactive: 0.19.

UBE2K (UniProt P61086): the log2 fold change was inactive: -0.03.

With U2AF1 isoform 2 (UniProt Q01081), the log2 fold change is inactive: 0.058.

For TUBB3 (UniProt Q13509), the log2 fold change was inactive: -0.037.

For the target TXN2 (UniProt Q99757), the log2 fold change is inactive: 0.088.

Compound in a further assay: NCC(=O)Nc1ccc(-n2nc(C(F)(F)F)cc2-c2ccc3c(ccc4ccccc43)c2)cc1
The assay is described as above. The method, boiled down:
as §1
UBAP1 isoform 4 (UniProt Q9NZ09): the log2 fold change is inactive: 0.002.

As for U2AF2 (UniProt P26368), the log2 fold change was inactive: -0.051.

TSPAN14 (UniProt Q8NG11): the log2 fold change was inactive: -0.056.

With UBA3 (UniProt Q8TBC4), the log2 fold change is inactive: -0.002.

In the case of TXNL4A (UniProt P83876), the log2 fold change was inactive: -0.051.

Regarding TXNDC9 (UniProt O14530), the log2 fold change was inactive: -0.024.

Turning to UBE2L3 isoform 3 (UniProt P68036), the log2 fold change was inactive: 0.018.

Take UBAC1 (UniProt Q9BSL1): the log2 fold change was inactive: -0.009.

As for TTF2 (UniProt Q9UNY4), the log2 fold change was inactive: -0.017.

UBE3A (UniProt Q05086): the log2 fold change is inactive: 0.

Regarding TTC9C (UniProt Q8N5M4), the log2 fold change was inactive: 0.043.

On to TTC4 (UniProt O95801), for which the log2 fold change is inactive: -0.073.

As for UBA1 (UniProt P22314), the log2 fold change was inactive: -0.101.

With TSFM (UniProt P43897), the log2 fold change was inactive: -0.076.

In the case of TSR2 (UniProt Q969E8), the log2 fold change was inactive: 0.148.

As to TUBE1 (UniProt Q9UJT0), the log2 fold change was inactive: -0.004.

In the case of UBE2S (UniProt Q16763), the log2 fold change is inactive: -0.086.

As to TXNRD2 (UniProt Q9NNW7), the log2 fold change was inactive: -0.032.

Regarding UBE2E3 (UniProt Q969T4), the log2 fold change was inactive: -0.106.

Take UBAP2 (UniProt Q5T6F2): the log2 fold change is inactive: 0.016.

On to UBE2M (UniProt P61081), for which the log2 fold change was inactive: -0.055.

In the case of TTC17 (UniProt Q96AE7), the log2 fold change was inactive: -0.004.

Consider TTI1 (UniProt O43156), for which the log2 fold change was inactive: -0.022.

For UAP1 (UniProt Q16222), the log2 fold change is inactive: -0.003.

For TSPO (UniProt P30536), the log2 fold change is inactive: -0.023.

In the case of TTN isoform 12 (UniProt Q8WZ42), the log2 fold change was inactive: -0.23.

Consider TTL (UniProt Q8NG68), for which the log2 fold change was inactive: 0.064.

As to TXNDC15 (UniProt Q96J42), the log2 fold change is inactive: -0.096.

With UBE2T (UniProt Q9NPD8), the log2 fold change is inactive: -0.048.

As for TWF2 (UniProt Q6IBS0), the log2 fold change is inactive: -0.026.

For TUFM (UniProt P49411), the log2 fold change was inactive: -0.048.

For UBA52 (UniProt P62987), the log2 fold change was inactive: 0.178.

Regarding UBE2G1 (UniProt P62253), the log2 fold change was inactive: -0.001.

In the case of UBE2F isoform 2 (UniProt Q969M7), the log2 fold change was inactive: 0.016.

Regarding U2SURP (UniProt O15042), the log2 fold change was inactive: -0.136.

Consider TXNIP (UniProt Q9H3M7), for which the log2 fold change is inactive: 0.007.

For UBE2K (UniProt P61086), the log2 fold change is inactive: 0.001.

U2AF1 isoform 2 (UniProt Q01081): the log2 fold change was inactive: -0.096.

Take TUBB3 (UniProt Q13509): the log2 fold change was inactive: 0.079.

Take TXN2 (UniProt Q99757): the log2 fold change is inactive: 0.049.

For the origin of these results see the supplement of paper PMC10849652.
